Source: doi:10.1101/2025.07.25.666897
Results are given in words; binding and its absence hold for the method and conditions named. In cells and extracts the contact can be indirect. Some results given as binding are weak or reduced against the parent protein; the word gives no strength. For some of these results: Where a sequence is shown, tags or fusion partners need not be part of it.

Protein sequences, listed by entry. Tags and fused reporters are not part of them.
UniProt P06730: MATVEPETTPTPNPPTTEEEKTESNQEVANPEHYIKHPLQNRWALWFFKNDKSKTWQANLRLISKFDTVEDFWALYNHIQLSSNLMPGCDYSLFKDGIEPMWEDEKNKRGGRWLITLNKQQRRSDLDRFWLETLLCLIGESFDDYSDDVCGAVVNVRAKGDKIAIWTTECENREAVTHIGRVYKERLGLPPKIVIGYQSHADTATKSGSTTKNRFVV
UniProt Q15717: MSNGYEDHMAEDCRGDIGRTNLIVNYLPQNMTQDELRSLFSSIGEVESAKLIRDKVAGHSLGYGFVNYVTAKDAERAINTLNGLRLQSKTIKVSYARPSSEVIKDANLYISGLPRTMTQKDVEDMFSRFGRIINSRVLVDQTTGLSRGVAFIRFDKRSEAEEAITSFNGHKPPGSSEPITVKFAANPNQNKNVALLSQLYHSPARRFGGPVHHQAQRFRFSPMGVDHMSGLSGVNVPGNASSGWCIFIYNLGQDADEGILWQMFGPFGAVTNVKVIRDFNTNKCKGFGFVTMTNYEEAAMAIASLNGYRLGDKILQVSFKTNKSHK

Assays:
[1] = molecular target: eukaryotic translation initiation factor eIF4E (endogenous) (human (endogenous in U2OS)) (UniProt P06730); test: co-IP; endogenous eIF4E precipitated with anti-eIF4E (rabbit, MBL) on Dynabeads G from native (not crosslinked), untreated U2OS nuclear lysates, NT-2 buffer, 4°C overnight, one wash with 1 mg/ml heparin; IgG control; western blot
2FLAG-NCBP2 = molecular target: T1, 2FLAG-NCBP2 (UniProt P52298); test: co-IP; FLAG IPs from crosslinked nuclear lysates of U2OS cells stably overexpressing FLAG-eIF4E or FLAG-NCBP2, two clones each in biological duplicate; vector cells as control; western blot
T1 sequence: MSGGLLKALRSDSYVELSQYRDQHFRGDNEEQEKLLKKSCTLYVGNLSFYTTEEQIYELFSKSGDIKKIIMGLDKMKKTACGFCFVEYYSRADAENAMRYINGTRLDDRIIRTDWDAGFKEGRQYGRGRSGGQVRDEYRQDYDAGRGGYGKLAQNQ

2FLAG-eIF4E = 2FLAG-eIF4E (UniProt P06730); test: as above

For HuR/ELAVL1 (from UniProt Q15717 1-326), the binding [1] was “binds”.

B1: ARS2, also known as SRRT (protein, UniProt Q9BXP5 1-876)
chain: MGDSDDEYDRRRRDKFRRERSDYDRSRERDERRRGDDWNDREWDRGRERRSRGEYRDYDRNRRERFSPPRHELSPPQKRMRRDWDEHSSDPYHSGYEMPYAGGGGGPTYGPPQPWGHPDVHIMQHHVLPIQARLGSIAEIDLGVPPPVMKTFKEFLLSLDDSVDETEAVKRYNDYKLDFRRQQMQDFFLAHKDEEWFRSKYHPDEVGKRRQEARGALQNRLRVFLSLMETGWFDNLLLDIDKADAIVKMLDAAVIKMEGGTENDLRILEQEEEEEQAGKPGEPSKKEEGRAGAGLGDGERKTNDKDEKKEDGKQAENDSSNDDKTKKSEGDGDKEEKKEDSEKEAKKSSKKRNRKHSGDDSFDEGSVSESESESESGQAEEEKEEAEEALKEKEKPKEEEWEKPKDAAGLECKPRPLHKTCSLFMRNIAPNISRAEIISLCKRYPGFMRVALSEPQPERRFFRRGWVTFDRSVNIKEICWNLQNIRLRECELSPGVNRDLTRRVRNINGITQHKQIVRNDIKLAAKLIHTLDDRTQLWASEPGTPPLPTSLPSQNPILKNITDYLIEEVSAEEEELLGSSGGAPPEEPPKEGNPAEINVERDEKLIKVLDKLLLYLRIVHSLDYYNTCEYPNEDEMPNRCGIIHVRGPMPPNRISHGEVLEWQKTFEEKLTPLLSVRESLSEEEAQKMGRKDPEQEVEKFVTSNTQELGKDKWLCPLSGKKFKGPEFVRKHIFNKHAEKIEEVKKEVAFFNNFLTDAKRPALPEIKPAQPPGPAQILPPGLTPGLPYPHQTPQGLMPYGQPRPPILGYGAGAVRPAVPTGGPPYPHAPYGAGRGNYDAFRGQGGYPGKPRNRMVRGDPRAIVEYRDLDAPDDVDFF
B1 was tested, and the binding (2FLAG-NCBP2) was “binds” and the binding (2FLAG-eIF4E) was “no binding”.

B2: U2AF1 (protein, UniProt Q01081 1-240)
chain: MAEYLASIFGTEKDKVNCSFYFKIGACRHGDRCSRLHNKPTFSQTIALLNIYRNPQNSSQSADGLRCAVSDVEMQEHYDEFFEEVFTEMEEKYGEVEEMNVCDNLGDHLVGNVYVKFRREEDAEKAVIDLNNRWFNGQPIHAELSPVTDFREACCRQYEMGECTRGGFCNFMHLKPISRELRRELYGRRRKKHRSRSRSRERRSRSRDRGRGGGGGGGGGGGGRERDRRRSRDRERSGRF
For B2, the binding [1] was “binds”.
